In article PMC8595612, “Hydrogen peroxide signaling via its transformation to a stereospecific alkyl hydroperoxide that escapes reductive inactivation” (Nature Communications, 2021) one finds binding data, which are given here for four molecules.

These are yes or no findings as the source states them, for the method shown. Some binding calls cover weakened binding; strength is not graded here. For some of these results: Where a sequence is shown, tags or fusion partners need not be part of it.

Experiment [1] has as its target T1, mouse Prx2, endogenous in arteries (mouse (endogenous in aorta and mesenteric arteries)), Q61171.
T1 chain: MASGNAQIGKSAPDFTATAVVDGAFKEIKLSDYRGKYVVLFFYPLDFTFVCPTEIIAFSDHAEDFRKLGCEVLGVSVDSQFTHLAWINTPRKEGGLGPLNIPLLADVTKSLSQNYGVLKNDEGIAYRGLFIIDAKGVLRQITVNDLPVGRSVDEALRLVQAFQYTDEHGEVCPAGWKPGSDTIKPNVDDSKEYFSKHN
The experiment in a line: non-reducing SDS-PAGE and immunoblot (disulfide-linked dimer); aorta and mesenteric arteries of naive or LPS-treated mice (with or without L-Trp infusion), perfused with 100 mM NEM, homogenised in Laemmli buffer; non-reducing electrophoresis, immunoblot for PKG1α, Prx2, Prx4; dimer band to total. The following applies: remark: other sources report otherwise. A general note: Immunoblotting shows a protein as a band on a membrane.

For experiment [2], the target named is mouse PKG1α, endogenous in mesenteric arteries (mouse (endogenous in mesenteric arteries)) (UniProt P0C605). Described as above.
The target of experiment [3] is His-tagged wild type human Prx4 (peroxiredoxin 4) (human) (UniProt Q13162). Description: non-reducing SDS-PAGE (disulfide-linked dimer, redox blotting); purified pre-reduced Prx (20 uM) incubated with cis-WOOH, trans-WOOH (1-20 uM) or H2O2 (2.5-20 uM) for 10 s at 5 °C in 50 mM sodium phosphate pH 7.4 with 100 uM DTPA; NEM 50 mM; non-reducing 4-12% SDS-PAGE, silver stain; monomer and dimer bands; both purified.

Experiment [4] addresses mouse Prx4, endogenous in arteries (mouse (endogenous in aorta and mesenteric arteries)) (UniProt O08807). Description: non-reducing SDS-PAGE and immunoblot (disulfide-linked dimer); aorta and mesenteric arteries of naive or LPS-treated mice (with or without L-Trp infusion), perfused with 100 mM NEM, homogenised in Laemmli buffer; non-reducing electrophoresis, immunoblot for PKG1α, Prx2, Prx4; dimer band to total.

B1: mouse Prx2, endogenous in arteries, Q61171 1-198 (enzyme)
chain: MASGNAQIGKSAPDFTATAVVDGAFKEIKLSDYRGKYVVLFFYPLDFTFVCPTEIIAFSDHAEDFRKLGCEVLGVSVDSQFTHLAWINTPRKEGGLGPLNIPLLADVTKSLSQNYGVLKNDEGIAYRGLFIIDAKGVLRQITVNDLPVGRSVDEALRLVQAFQYTDEHGEVCPAGWKPGSDTIKPNVDDSKEYFSKHN
As to B1, the binding result in experiment [1] was “binds”.

B2: mouse PKG1α, endogenous in mesenteric arteries (enzyme, UniProt P0C605 1-671)
chain: MSELEEDFAKILMLKEERIKELEKRLSEKEEEIQELKRKLHKCQSVLPVPSTHIGPRTTRAQGISAEPQTYRSFHDLRQAFRKFTKSERSKDLIKEAILDNDFMKNLELSQIQEIVDCMYPVEYGKDSCIIKEGDVGSLVYVMEDGKVEVTKEGVKLCTMGPGKVFGELAILYNCTRTATVKTLVNVKLWAIDRQCFQTIMMRTGLIKHTEYMEFLKSVPTFQSLPDEILSKLADVLEETHYENGEYIIRQGARGDTFFIISKGQVNVTREDSPSEDPVFLRTLGKGDWFGEKALQGEDVRTANVIAAEAVTCLVIDRDSFKHLIGGLDDVSNKAYEDAEAKAKYEAEAAFFANLKLSDFNIIDTLGVGGFGRVELVQLKSEESKTFAMKILKKRHIVDTRQQEHIRSEKQIMQGAHSDFIVRLYRTFKDSKYLYMLMEACLGGELWTILRDRGSFEDSTTRFYTACVVEAFAYLHSKGIIYRDLKPENLILDHRGYAKLVDFGFAKKIGFGKKTWTFCGTPEYVAPEIILNKGHDISADYWSLGILMYELLTGSPPFSGPDPMKTYNIILRGIDMIEFPKKIAKNAANLIKKLCRDNPSERLGNLKNGVKDIQKHKWFEGFNWEGLRKGTLTPPIIPSVASPTDTSNFDSFPEDSDEPPPDDNSGWDIDF
With B2, the binding entry in experiment [2] was “binds”.

B3: His-tagged wild type human Prx4 (peroxiredoxin 4) (enzyme, UniProt Q13162 38-271)
chain: WETEERPRTREEECHFYAGGQVYPGEASRVSVADHSLHLSKAKISKPAPYWEGTAVIDGEFKELKLTDYRGKYLVFFFYPLDFTFVCPTEIIAFGDRLEEFRSINTEVVACSVDSQFTHLAWINTPRRQGGLGPIRIPLLSDLTHQISKDYGVYLEDSGHTLRGLFIIDDKGILRQITLNDLPVGRSVDETLRLVQAFQYTDKHGEVCPAGWKPGSETIIPDPAGKLKYFDKLN
On to B3, for which, in experiment [3], the binding entry is “binds”.

B4: mouse Prx4, endogenous in arteries (enzyme, UniProt O08807 41-274)
chain: LESDERFRTRENECHFYAGGQVYPGEASRVSVADHSLHLSKAKISKPAPYWEGTAVINGEFKELKLTDYRGKYLVFFFYPLDFTFVCPTEIIAFGDRIEEFKSINTEVVACSVDSQFTHLAWINTPRRQGGLGPIRIPLLSDLNHQISKDYGVYLEDSGHTLRGLFIIDDKGVLRQITLNDLPVGRSVDETLRLVQAFQYTDKHGEVCPAGWKPGSETIIPDPAGKLKYFDKLN
As for B4, in experiment [4], the binding result is “binds”.
